Data as given in PubChem BioAssay AID1259327 (Drosophila RNAi Screening Center, 2017).
In all, the deposit lists about 3,100 reagents; this is a random part of them. 378 of all reagents (12%) count as active. 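Hits include both directions; z-score sign shows ATP rise or fall; raw luminescence values are not plate-normalised.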 A number with no mark means an inactive call. Names joined by + are all predicted targets of the reagent. Not given: the amount of reagent.

Aim: 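Baseline ATP after transmembrane-protein gene knock-down with water vehicle only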
System: Drosophila S2R+ cells
Knock-down reagent: long dsRNA against Drosophila genes
Time to read-out: 5 days (water added on day 4, read one day later)
Challenge: water added as vehicle, no metal, one day before read-out
Measurement: 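Total ATP measured by luciferase light, scaled to plate mean, duplicates averaged, then z-scored across plates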
Scale: ATP z-score: higher = more total ATP than typical wells; ATP luminescence: higher = more total ATP
Rule for the call: 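a hit is any knock-down whose absolute ATP z-score is greater than 1.5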
Calls: active = hit: ATP up or down; inactive = no clear ATP change

The first 6 entries as a preview:
| target gene | PubChem SID | ATP z-score, duplicate mean | ATP luminescence, replicate 1 (RLU) | ATP luminescence, replicate 2 (RLU) |
| --- | --- | --- | --- | --- |
| CG1632 | SID104197350 | -0.188 | 5.96e5 | 6.09e5 |
| CG1632 | SID104197902 | 1.4 | 7.41e5 | 7.85e5 |
| Or2a | SID104198482 | 0.395 | 7.78e5 | 7.49e5 |
| Or2a | SID104217407 | -1.5 | 3.66e5 | 3.83e5 |
| CG42685 | SID104181763 | 0.45 | 7.86e5 | 7.62e5 |
| CG42685 | SID104217101 | 0.492 | 4.20e5 | 5.47e5 |

Main list, repeating the preview:
| target gene | PubChem SID | ATP z-score, duplicate mean | ATP luminescence, replicate 1 (RLU) | ATP luminescence, replicate 2 (RLU) |
| --- | --- | --- | --- | --- |
| CG1632 | SID104197350 | -0.188 | 5.96e5 | 6.09e5 |
| CG1632 | SID104197902 | 1.4 | 7.41e5 | 7.85e5 |
| Or2a | SID104198482 | 0.395 | 7.78e5 | 7.49e5 |
| Or2a | SID104217407 | -1.5 | 3.66e5 | 3.83e5 |
| CG42685 | SID104181763 | 0.45 | 7.86e5 | 7.62e5 |
| CG42685 | SID104217101 | 0.492 | 4.20e5 | 5.47e5 |
| Hsepi | SID104184778 | -1.44 | 5.00e5 | 4.79e5 |
| Hsepi | SID104204633 | 0.0455 | 7.98e5 | 9.14e5 |
| sas | SID104192423 | 0.00662 | 9.72e5 | 8.25e5 |
| Nup62 | SID104186762 | -2.36 (active) | 4.17e5 | 5.43e5 |
| ifc | SID104183341 | -0.116 | 4.93e5 | 4.47e5 |
| ifc | SID104217241 | -0.0335 | 4.33e5 | 4.94e5 |
| Aplip1 | SID104201294 | 0.609 | 6.32e5 | 6.30e5 |
| Aplip1 | SID104204856 | 0.818 | 9.03e5 | 1.00e6 |
| CG13426 | SID104186180 | -0.909 | 5.15e5 | 5.60e5 |
| mthl9 | SID104188298 | -0.523 | 6.44e5 | 5.00e5 |
| mthl9 | SID104217359 | 0.121 | 4.55e5 | 5.22e5 |
| sev | SID104200164 | 1.06 | 7.19e5 | 6.99e5 |
| sev | SID104214191 | 1.41 | 6.22e5 | 7.77e5 |
| sev | SID104214192 | -1.6 (active) | 4.85e5 | 4.02e5 |
| CG44098 | SID104192119 | -0.334 | 8.87e5 | 8.18e5 |
| CG44098 | SID104202834 | 1.95 (active) | 1.05e6 | 1.06e6 |
| CG44098 | SID104203056 | 1.58 (active) | 1.02e6 | 1.01e6 |
| kkv | SID104192107 | 0.03 | 7.07e5 | 7.62e5 |
| Or9a | SID104198484 | -1.29 | 5.87e5 | 6.46e5 |
| Or9a | SID104206821 | -0.356 | 8.34e5 | 7.31e5 |
| CCAP-R | SID104194683 | 0.00134 | 7.57e5 | 7.27e5 |
| CCAP-R | SID104195759 | -0.582 | 2.66e5 | 7.16e5 |
| CCAP-R | SID104208038 | -0.536 | 7.93e5 | 7.26e5 |
| ste24c + CG30461 | SID104185431 | 0.0282 | 7.30e5 | 7.62e5 |
| ste24c + CG30461 | SID104187108 | -0.49 | 5.33e5 | 6.18e5 |
| galene | SID104188432 | -0.569 | 5.87e5 | 5.49e5 |
| galene | SID104188433 | 0.043 | 7.57e5 | 7.36e5 |
| Cad96Cb | SID104194035 | 1.25 | 3.07e5 | 1.02e6 |
| Cad96Cb | SID104194457 | 0.814 | 9.02e5 | 7.55e5 |
| Cad96Cb | SID104207264 | 0.281 | 9.37e5 | 7.83e5 |
| CG33090 | SID104181700 | 0.128 | 4.18e5 | 5.63e5 |
| CG33090 | SID104206467 | 0.0875 | 9.77e5 | 1.09e6 |
| CG33181 | SID104197763 | -0.214 | 6.64e5 | 8.58e5 |
| CG33181 | SID104208001 | -0.192 | 8.28e5 | 7.73e5 |
| Itpr | SID104192146 | 0.415 | 9.74e5 | 9.28e5 |
| Itpr | SID104207314 | -1.31 | 6.84e5 | 6.49e5 |
| CG4607 | SID104198167 | 0.422 | 5.97e5 | 8.18e5 |
| Tsp42A | SID104184654 | -0.28 | 5.95e5 | 5.94e5 |
| Tsp42A | SID104217474 | 2.07 (active) | 8.42e5 | 6.70e5 |
| PGRP-SC1a + PGRP-SC1b | SID104203840 | -1.31 | 6.65e5 | 6.89e5 |
| CG34234 + Dh44-R2 | SID104187070 | 0.897 | 8.65e5 | 7.87e5 |
| CG13078 | SID104181974 | 1.15 | 8.74e5 | 8.24e5 |
| CG3690 | SID104197962 | -1.24 | 5.81e5 | 6.36e5 |
| CG3690 | SID104198433 | 2.51 (active) | 7.98e5 | 7.50e5 |
| Arts + Apl | SID104190141 | 0.48 | 8.33e5 | 1.08e6 |
| CG31760 | SID104182382 | -1.2 | 6.56e5 | 5.43e5 |
| CG31760 | SID104205652 | -0.0208 | 8.12e5 | 7.96e5 |
| Mgtor | SID104185750 | 0.339 | 7.91e5 | 7.43e5 |
| Mgtor | SID104217399 | -1.74 (active) | 3.66e5 | 3.47e5 |
| Gr63a | SID104188230 | -0.27 | 8.67e5 | 8.54e5 |
| Zip102B | SID104204545 | -0.478 | 7.37e5 | 8.45e5 |
| Zip102B | SID104217314 | 0.171 | 4.09e5 | 5.47e5 |
| Nup58 | SID104196027 | 1.85 (active) | 3.80e5 | 9.67e5 |
| Nup58 | SID104206407 | 1.15 | 9.62e5 | 9.91e5 |
| Tsp39D | SID104182891 | 0.081 | 7.95e5 | 6.76e5 |
| dsb | SID104188334 | 2.61 (active) | 8.08e5 | 9.05e5 |
| Tom7 | SID104184927 | -0.768 | 6.57e5 | 6.61e5 |
| Tom7 | SID104186905 | -0.39 | 6.36e5 | 5.32e5 |
| kar | SID104194288 | 1.05 | 8.26e5 | 8.02e5 |
| kar | SID104217063 | 1.19 | 6.15e5 | 4.53e5 |
| CG4459 | SID104195374 | -0.302 | 2.92e5 | 7.14e5 |
| SPR | SID104197678 | 1.86 (active) | 5.84e5 | 7.10e5 |
| SPR | SID104201270 | 0.436 | 5.47e5 | 6.87e5 |
| bond | SID104195927 | 0.0766 | 7.26e5 | 7.01e5 |
| bond | SID104202864 | 0.597 | 9.75e5 | 8.74e5 |
| CG6928 | SID104190541 | -0.557 | 6.79e5 | 6.64e5 |
| CG6928 | SID104217329 | -0.061 | 4.29e5 | 4.94e5 |
| Or45b | SID104187280 | 0.108 | 6.74e5 | 5.84e5 |
| Or45b | SID104217103 | 0.15 | 4.97e5 | 4.30e5 |
| 5-HT2A | SID104191782 | 0.932 | 8.32e5 | 8.30e5 |
| 5-HT2A | SID104217286 | 1.05 | 5.34e5 | 5.40e5 |
| CG7970 | SID104188397 | 0.439 | 7.09e5 | 8.49e5 |
| CG7970 | SID104204634 | -0.375 | 7.72e5 | 8.35e5 |
| GluRIIE | SID104193223 | -0.334 | 2.77e5 | 7.45e5 |
| GluRIIE | SID104217198 | -1.46 | 3.48e5 | 3.86e5 |
